Measured values taken from paper doi:10.1101/2025.02.03.636340.
These are yes or no findings as the source states them, for the method shown. Some results given as binding are weak or reduced against the parent protein; the word gives no strength.

Sequences of proteins named here, by UniProt entry; tags and fusion partners are left off. Residues count along the entry.
UniProt P31421, 19-872: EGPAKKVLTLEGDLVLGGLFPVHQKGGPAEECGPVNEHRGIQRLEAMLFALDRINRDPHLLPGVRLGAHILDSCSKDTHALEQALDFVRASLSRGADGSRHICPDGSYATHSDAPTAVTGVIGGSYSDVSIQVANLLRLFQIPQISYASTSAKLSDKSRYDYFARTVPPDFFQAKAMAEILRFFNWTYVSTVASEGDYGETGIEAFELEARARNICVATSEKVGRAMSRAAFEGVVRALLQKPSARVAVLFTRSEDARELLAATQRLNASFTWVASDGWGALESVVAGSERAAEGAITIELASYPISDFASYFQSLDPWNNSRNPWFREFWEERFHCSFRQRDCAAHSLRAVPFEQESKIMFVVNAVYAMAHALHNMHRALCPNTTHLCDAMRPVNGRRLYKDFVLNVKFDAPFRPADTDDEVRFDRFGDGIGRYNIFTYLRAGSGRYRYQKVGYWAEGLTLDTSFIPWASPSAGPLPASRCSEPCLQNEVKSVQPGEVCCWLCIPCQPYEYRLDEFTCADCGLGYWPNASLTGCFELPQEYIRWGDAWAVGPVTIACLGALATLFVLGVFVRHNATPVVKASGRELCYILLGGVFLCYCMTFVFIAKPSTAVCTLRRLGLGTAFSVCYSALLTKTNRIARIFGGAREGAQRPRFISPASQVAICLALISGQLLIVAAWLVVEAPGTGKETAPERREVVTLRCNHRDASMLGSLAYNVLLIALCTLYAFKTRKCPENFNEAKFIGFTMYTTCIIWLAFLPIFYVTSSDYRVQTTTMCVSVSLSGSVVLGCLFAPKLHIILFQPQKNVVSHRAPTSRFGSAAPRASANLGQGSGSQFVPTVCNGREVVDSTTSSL
UniProt P41594, 21-1212: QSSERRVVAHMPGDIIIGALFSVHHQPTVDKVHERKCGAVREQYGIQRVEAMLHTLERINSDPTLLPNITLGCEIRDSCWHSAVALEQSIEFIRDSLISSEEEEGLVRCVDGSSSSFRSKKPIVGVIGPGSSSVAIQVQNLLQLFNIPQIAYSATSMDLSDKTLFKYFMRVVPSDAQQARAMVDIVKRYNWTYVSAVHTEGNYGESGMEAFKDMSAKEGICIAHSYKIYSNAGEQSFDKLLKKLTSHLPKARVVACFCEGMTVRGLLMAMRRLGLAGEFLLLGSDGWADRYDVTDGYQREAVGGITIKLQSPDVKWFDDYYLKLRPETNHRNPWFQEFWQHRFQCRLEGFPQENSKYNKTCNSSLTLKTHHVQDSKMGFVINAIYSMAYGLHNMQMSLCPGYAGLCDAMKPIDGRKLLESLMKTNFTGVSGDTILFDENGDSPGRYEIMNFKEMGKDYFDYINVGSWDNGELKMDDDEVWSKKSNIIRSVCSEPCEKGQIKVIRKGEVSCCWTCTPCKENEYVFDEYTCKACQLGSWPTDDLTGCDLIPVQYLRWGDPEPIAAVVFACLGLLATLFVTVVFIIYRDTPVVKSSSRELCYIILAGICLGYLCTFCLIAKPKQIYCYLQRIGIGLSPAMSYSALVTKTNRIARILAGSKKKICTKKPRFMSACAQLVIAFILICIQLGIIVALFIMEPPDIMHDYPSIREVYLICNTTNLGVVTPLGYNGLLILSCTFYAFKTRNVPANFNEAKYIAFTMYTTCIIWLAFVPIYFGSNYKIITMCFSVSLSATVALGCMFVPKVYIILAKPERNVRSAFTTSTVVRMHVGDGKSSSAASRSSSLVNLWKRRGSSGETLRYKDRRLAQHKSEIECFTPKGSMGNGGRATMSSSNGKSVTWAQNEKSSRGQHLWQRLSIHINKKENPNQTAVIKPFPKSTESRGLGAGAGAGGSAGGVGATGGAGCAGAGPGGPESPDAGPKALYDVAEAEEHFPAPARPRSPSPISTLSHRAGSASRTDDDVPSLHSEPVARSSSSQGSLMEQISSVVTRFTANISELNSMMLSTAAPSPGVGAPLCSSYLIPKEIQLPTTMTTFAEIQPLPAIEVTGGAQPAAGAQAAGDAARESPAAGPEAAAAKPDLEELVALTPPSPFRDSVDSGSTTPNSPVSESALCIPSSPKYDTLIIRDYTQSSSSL
UniProt O00222, 34-908: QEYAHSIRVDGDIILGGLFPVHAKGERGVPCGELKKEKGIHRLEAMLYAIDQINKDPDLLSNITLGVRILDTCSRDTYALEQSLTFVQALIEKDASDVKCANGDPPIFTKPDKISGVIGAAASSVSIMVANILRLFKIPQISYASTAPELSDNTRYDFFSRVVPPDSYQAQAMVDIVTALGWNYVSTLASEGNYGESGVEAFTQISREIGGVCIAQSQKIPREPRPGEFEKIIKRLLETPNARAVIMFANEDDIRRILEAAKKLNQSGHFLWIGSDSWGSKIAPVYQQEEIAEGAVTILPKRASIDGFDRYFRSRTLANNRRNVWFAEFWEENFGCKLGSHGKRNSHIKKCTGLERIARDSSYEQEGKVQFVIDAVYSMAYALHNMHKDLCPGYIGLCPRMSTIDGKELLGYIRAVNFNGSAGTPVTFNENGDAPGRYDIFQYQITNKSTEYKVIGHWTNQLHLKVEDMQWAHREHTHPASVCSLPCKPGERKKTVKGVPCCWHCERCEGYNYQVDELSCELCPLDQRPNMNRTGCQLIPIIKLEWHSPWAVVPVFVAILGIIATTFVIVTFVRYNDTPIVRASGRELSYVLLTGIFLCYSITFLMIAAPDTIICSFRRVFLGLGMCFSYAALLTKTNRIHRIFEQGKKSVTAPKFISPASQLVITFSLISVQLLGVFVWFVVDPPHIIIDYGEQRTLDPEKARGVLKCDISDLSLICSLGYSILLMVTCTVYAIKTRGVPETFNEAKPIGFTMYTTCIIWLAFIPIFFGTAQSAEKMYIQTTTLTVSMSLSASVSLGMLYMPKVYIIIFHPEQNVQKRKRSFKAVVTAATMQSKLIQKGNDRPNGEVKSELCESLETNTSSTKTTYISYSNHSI
UniProt P29066, whole entry: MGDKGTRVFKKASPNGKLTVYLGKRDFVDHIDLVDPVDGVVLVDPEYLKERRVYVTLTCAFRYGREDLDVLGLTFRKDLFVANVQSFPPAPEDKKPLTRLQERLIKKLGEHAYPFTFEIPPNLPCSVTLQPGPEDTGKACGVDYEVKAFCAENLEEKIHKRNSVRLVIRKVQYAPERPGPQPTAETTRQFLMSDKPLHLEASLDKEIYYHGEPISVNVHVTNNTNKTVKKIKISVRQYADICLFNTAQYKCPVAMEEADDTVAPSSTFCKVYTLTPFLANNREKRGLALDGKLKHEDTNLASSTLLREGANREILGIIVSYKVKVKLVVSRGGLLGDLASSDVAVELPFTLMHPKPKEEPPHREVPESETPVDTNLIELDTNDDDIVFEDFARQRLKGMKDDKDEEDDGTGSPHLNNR

Tests used:
[1] = target: HA-SNAP-mGluR2 (rat metabotropic glutamate receptor 2) (rat) (UniProt P31421); experiment: single molecule pulldown
[2] = target: HA-SNAP-mGluR5 (human metabotropic glutamate receptor 5) (human) (UniProt P41594); experiment: single molecule pulldown

| binding [1] | binding [2] | Substance |
| --- | --- | --- |
| binds |  | SNAP-mGluR8, wild type (subunit without HA for pulldown) (from UniProt O00222 34-908) (receptor) |
| no binding (tested: <5% colocalization) | no binding | β-arr1-Halo (rat beta-arrestin 1, wild type, C-terminally Halo-tagged) (from UniProt P29066 1-418) |
